Measurements from patent US11872270B2, “A*03 restricted peptides for use in immunotherapy against cancers and related methods” (Immatics Biotechnologies GmbH, priority 2018, dated 2024).

Test system: HLA molecules from shock-frozen tissue samples
Assay: Identification and quantitation of tumor associated peptides presented on the cell surface (HLA immunoprecipitation, LC-MS)
Parameters: species or system human
Conditions: cancer entities on which the peptide was detected by LC-MS of HLA ligands

Substance | Peptide Presentation on cancer entities
80 (ALCGTQLFY; listed as Homo sapiens) [compound 80] | AML, CCC, HCC, NHL, NSCLCadeno, NSCLCsquam, UEC
82 (CLANYTVNK; listed as Homo sapiens) [compound 82] | UEC
83 (KLADSVMAGK; listed as Homo sapiens) [compound 83] | BRCA, CRC, GBM, SCLC
85 (IMPTFDLTK; listed as Homo sapiens) [compound 85] | HCC
86 (RVSGSGGGGAGK; listed as Homo sapiens) [compound 86] | NHL
87 (RLASVGLDAK; listed as Homo sapiens) [compound 87] | HCC
88 (GTHVWVGLYK; listed as Homo sapiens) [compound 88] | PACA
90 (RTALLWGLKK; listed as Homo sapiens) [compound 90] | HNSCC
92 (KRIPFRPLAK; listed as Homo sapiens) [compound 92] | HCC
95 (FLGLAFHPK; listed as Homo sapiens) [compound 95] | SCLC
96 (RAVSVNPGK; listed as Homo sapiens) [compound 96] | CCC, GBC, HNSCC
97 (RVRALGSQY; listed as Homo sapiens) [compound 97] | CCC
98 (VSVAGSILAK; listed as Homo sapiens) [compound 98] | GBC
100 (TTNARILAR; listed as Homo sapiens) [compound 100] | MEL
101 (HMDEFKRTQK; listed as Homo sapiens) [compound 101] | CRC
102 (RLLQHTPSAR; listed as Homo sapiens) [compound 102] | CRC
103 (SIYKKAVYR; listed as Homo sapiens) [compound 103] | CRC
104 (AVVQGLVEK; listed as Homo sapiens) [compound 104] | HNSCC
106 (LLRSGLTLR; listed as Homo sapiens) [compound 106] | HCC, UEC
109 (KLQNLPTLLY; listed as Homo sapiens) [compound 109] | RCC
110 (IIFIPATILLK; listed as Homo sapiens) [compound 110] | AML, HCC
112 (ASLAAAVLAK; listed as Homo sapiens) [compound 112] | MEL
116 (KGVKKELPQK; listed as Homo sapiens) [compound 116] | UBC
117 (TVFVELWLK; listed as Homo sapiens) [compound 117] | AML
118 (SLRGSFPILY; listed as Homo sapiens) [compound 118] | CCC, MEL
121 (LLPAARATSR; listed as Homo sapiens) [compound 121] | NSCLCsquam
127 (GLAAGALLLY; listed as Homo sapiens) [compound 127] | NSCLCsquam

Substance | Peptide Presentation on cancer entities
128 (KIKKPLSYR; listed as Homo sapiens) [compound 128] | UEC
130 (KANSGNTFKY; listed as Homo sapiens) [compound 130] | HCC
132 (ASSFRPLLSK; listed as Homo sapiens) [compound 132] | MEL
135 (TFKSVLLNK; listed as Homo sapiens) [compound 135] | RCC
137 (TVYVAMCHKF; listed as Homo sapiens) [compound 137] | OSCAR
139 (KAIIRVIPLK; listed as Homo sapiens) [compound 139] | CRC
140 (RLLAAGQVIR; listed as Homo sapiens) [compound 140] | CCC, HCC, HNSCC, OSCAR
141 (RLRDYISSLK; listed as Homo sapiens) [compound 141] | NHL
142 (SPRVYWLGLNDR; listed as Homo sapiens) [compound 142] | NHL
143 (KTLGKIAEK; listed as Homo sapiens) [compound 143] | CCC, CRC, GBC, HNSCC, NSCLCadeno, NSCLCother, NSCLCsquam, OSCAR, PRCA
144 (PLAMLAATCNK; listed as Homo sapiens) [compound 144] | HCC
147 (KLFMPRPK; listed as Homo sapiens) [compound 147] | GBC
148 (RIGNKGIYK; listed as Homo sapiens) [compound 148] | AML
149 (TVFLSKYLKK; listed as Homo sapiens) [compound 149] | UEC
151 (KVASFTVIGY; listed as Homo sapiens) [compound 151] | CCC, NHL
154 (TIASVLVAR; listed as Homo sapiens) [compound 154] | NHL
156 (VSLGIAVSK; listed as Homo sapiens) [compound 156] | AML, CCC, HNSCC
158 (RALGVPFVPR; listed as Homo sapiens) [compound 158] | CCC
159 (LLLLPFLLY; listed as Homo sapiens) [compound 159] | CCC
160 (RLLPGKVVWK; listed as Homo sapiens) [compound 160] | UEC
161 (MKTLPAMLGTGK; listed as Homo sapiens) [compound 161] | HNSCC, NSCLCadeno, OSCAR
162 (LLALGAAYVY; listed as Homo sapiens) [compound 162] | UEC
165 (AATIISSAK; listed as Homo sapiens) [compound 165] | RCC
168 (ATNGKVLKK; listed as Homo sapiens) [compound 168] | GBC, HNSCC
169 (ATNGKVLKKR; listed as Homo sapiens) [compound 169] | CLL, GBM, HNSCC, UEC
172 (SLLEADPFLK; listed as Homo sapiens) [compound 172] | AML
174 (KMMKRLMTVEK; listed as Homo sapiens) [compound 174] | NSCLCother

Substance | Peptide Presentation on cancer entities
175 (VIGTTSSPK; listed as Homo sapiens) [compound 175] | CCC, HCC
176 (RLYDAYVNR; listed as Homo sapiens) [compound 176] | GBM, RCC
177 (ALLGVIIAKK; listed as Homo sapiens) [compound 177] | RCC
179 (KINPTASLK; listed as Homo sapiens) [compound 179] | MEL
180 (RLKMAQESVSK; listed as Homo sapiens) [compound 180] | MEL
181 (RVAEEILIK; listed as Homo sapiens) [compound 181] | MEL
183 (KVYIPPIINK; listed as Homo sapiens) [compound 183] | BRCA, HCC, HNSCC, MEL, UEC
187 (KTCQVSGLLY; listed as Homo sapiens) [compound 187] | BRCA, MEL
188 (SSLPRAFQK; listed as Homo sapiens) [compound 188] | CCC, HNSCC
190 (RSKWSNVFK; listed as Homo sapiens) [compound 190] | CRC
191 (SLYNLGGAK; listed as Homo sapiens) [compound 191] | HNSCC, OSCAR, UEC
192 (RSYSHVVLK; listed as Homo sapiens) [compound 192] | BRCA, CRC, GBC, GBM
193 (IVYPSATDKTK; listed as Homo sapiens) [compound 193] | BRCA, HNSCC
194 (PVLICLALSK; listed as Homo sapiens) [compound 194] | AML, BRCA, CCC, CLL, CRC, GBM, GC, HCC, HNSCC, MEL, NHL, NSCLCadeno, NSCLCsquam, OSCAR, PACA, RCC, SCLC, UBC, UEC
195 (KLQAKVLQY; listed as Homo sapiens) [compound 195] | GBC, MEL
197 (RIVDYLLEK; listed as Homo sapiens) [compound 197] | CCC, HNSCC
198 (FLYGAQTVY; listed as Homo sapiens) [compound 198] | CLL
199 (IVFPDVISK; listed as Homo sapiens) [compound 199] | UEC
202 (RLFPGLYLGY; listed as Homo sapiens) [compound 202] | HCC
206 (RLYEMILQR; listed as Homo sapiens) [compound 206] | AML, BRCA, CLL, HCC, MEL, NHL, NSCLCadeno, NSCLCsquam, OSCAR, RCC, UEC
207 (ATLNLFQIVSK; listed as Homo sapiens) [compound 207] | AML
208 (KTGWFTLLY; listed as Homo sapiens) [compound 208] | BRCA, HCC
209 (KILDRVLSRY; listed as Homo sapiens) [compound 209] | AML
211 (VSLGTPIMK; listed as Homo sapiens) [compound 211] | AML, GBM, HNSCC, UEC
213 (KLYPTHACR; listed as Homo sapiens) [compound 213] | BRCA
